From paper PMC8857493
These are yes or no findings as the source states them, for the method shown. Some results given as binding are weak or reduced against the parent protein; the word gives no strength. Where a sequence is shown, tags or fusion partners need not be part of it.

Target: T1, p47-FL, yeast two-hybrid fusion (UniProt Q9UNZ2)
T1 sequence: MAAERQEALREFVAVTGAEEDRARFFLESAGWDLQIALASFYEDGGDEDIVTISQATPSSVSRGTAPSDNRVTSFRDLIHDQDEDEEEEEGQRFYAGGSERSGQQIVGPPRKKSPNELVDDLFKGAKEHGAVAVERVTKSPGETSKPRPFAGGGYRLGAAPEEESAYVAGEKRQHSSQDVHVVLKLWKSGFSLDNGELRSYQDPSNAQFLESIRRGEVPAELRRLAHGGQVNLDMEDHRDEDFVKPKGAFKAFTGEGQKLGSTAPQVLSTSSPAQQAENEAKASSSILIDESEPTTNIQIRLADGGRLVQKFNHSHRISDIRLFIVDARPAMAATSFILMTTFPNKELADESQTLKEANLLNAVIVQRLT
Experiment: two-hybrid; Matchmaker GAL4 Yeast Two-Hybrid 3 system; pGADT7- and pGBKT7-based plasmids (AD and DBD fusions) cotransformed into yeast AH109; growth on selective medium (Leu/Trp/Ade/His deficient); VCP variants against VCP cofactors

binding, binds:
VCP mutant m1 [D35A/V38A], yeast two-hybrid fusion (from UniProt P55072 1-806)
VCP mutant m2a [F52A], yeast two-hybrid fusion (from UniProt P55072 1-806)
VCP mutant m2b [R53A], yeast two-hybrid fusion (from UniProt P55072 1-806)
VCP mutant m3 [I70A/L72A], yeast two-hybrid fusion (from UniProt P55072 1-806)
VCP mutant m4 [V108A/K109A/Y110A], yeast two-hybrid fusion (from UniProt P55072 1-806)
VCP mutant m4+2b (R53A/V108A/K109A/Y110A), yeast two-hybrid fusion (from UniProt P55072 1-806)
VCP mutant m5 [E141A/Y143A], yeast two-hybrid fusion (from UniProt P55072 1-806)
VCP mutant m5a (E141A), yeast two-hybrid fusion (from UniProt P55072 1-806)
VCP mutant m5b (Y143A), yeast two-hybrid fusion (from UniProt P55072 1-806)
Valosin-containing protein/p97 (VCP), full-length, wild type, yeast two-hybrid fusion (from UniProt P55072 1-806)
